The supplement of paper PMC10849652
The list shows a part of the results.

The chains behind the UniProt entries cited, without tags or fusion partners. Where a name states a change or a piece, a line headed by the entry shows the natural chain unless it says otherwise.
UniProt O60725, whole entry, looked up: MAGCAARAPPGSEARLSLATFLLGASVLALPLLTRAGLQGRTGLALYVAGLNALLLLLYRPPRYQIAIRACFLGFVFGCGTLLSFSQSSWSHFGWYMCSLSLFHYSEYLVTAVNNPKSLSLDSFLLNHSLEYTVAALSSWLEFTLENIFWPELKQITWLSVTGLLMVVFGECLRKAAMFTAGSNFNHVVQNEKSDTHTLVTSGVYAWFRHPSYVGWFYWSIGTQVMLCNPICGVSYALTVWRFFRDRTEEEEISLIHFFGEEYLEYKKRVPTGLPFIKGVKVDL
UniProt O15347: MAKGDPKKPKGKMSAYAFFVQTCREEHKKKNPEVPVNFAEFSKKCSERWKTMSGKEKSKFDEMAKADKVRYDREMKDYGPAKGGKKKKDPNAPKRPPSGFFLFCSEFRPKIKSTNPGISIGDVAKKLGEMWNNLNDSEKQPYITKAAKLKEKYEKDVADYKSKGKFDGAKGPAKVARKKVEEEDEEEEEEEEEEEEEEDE
UniProt O43390: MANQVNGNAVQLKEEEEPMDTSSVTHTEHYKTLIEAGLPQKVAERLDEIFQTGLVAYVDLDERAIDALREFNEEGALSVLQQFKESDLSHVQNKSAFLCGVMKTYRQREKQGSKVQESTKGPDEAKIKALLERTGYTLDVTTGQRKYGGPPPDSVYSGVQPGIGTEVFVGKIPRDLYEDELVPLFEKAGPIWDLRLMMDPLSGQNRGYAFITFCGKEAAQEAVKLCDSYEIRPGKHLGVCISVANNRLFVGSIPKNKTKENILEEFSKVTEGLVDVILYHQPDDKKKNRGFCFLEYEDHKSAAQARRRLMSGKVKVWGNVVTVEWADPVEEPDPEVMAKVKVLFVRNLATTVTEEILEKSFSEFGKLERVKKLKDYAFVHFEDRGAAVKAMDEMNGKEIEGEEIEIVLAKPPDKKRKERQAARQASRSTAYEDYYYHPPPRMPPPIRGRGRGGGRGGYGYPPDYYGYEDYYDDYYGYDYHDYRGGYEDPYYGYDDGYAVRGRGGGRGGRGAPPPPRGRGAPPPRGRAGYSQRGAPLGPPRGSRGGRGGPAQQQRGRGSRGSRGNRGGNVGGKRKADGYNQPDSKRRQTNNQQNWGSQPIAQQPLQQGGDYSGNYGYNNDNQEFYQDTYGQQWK
UniProt P14866: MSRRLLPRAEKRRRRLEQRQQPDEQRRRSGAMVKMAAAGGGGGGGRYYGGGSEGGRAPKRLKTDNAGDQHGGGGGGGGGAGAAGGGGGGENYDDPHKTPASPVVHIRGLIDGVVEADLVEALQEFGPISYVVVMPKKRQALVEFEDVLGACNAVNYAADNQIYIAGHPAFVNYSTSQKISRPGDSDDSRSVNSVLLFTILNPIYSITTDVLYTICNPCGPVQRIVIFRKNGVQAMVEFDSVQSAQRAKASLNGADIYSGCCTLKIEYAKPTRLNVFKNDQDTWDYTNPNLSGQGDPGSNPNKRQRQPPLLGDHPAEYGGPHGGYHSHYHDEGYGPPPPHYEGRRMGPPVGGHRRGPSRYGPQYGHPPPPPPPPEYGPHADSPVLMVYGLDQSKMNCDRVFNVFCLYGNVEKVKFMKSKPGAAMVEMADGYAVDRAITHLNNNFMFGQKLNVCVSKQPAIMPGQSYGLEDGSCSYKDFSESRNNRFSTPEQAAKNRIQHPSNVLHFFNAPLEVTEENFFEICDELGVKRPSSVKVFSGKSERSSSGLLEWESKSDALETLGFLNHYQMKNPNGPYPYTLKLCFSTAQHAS
UniProt Q53T59: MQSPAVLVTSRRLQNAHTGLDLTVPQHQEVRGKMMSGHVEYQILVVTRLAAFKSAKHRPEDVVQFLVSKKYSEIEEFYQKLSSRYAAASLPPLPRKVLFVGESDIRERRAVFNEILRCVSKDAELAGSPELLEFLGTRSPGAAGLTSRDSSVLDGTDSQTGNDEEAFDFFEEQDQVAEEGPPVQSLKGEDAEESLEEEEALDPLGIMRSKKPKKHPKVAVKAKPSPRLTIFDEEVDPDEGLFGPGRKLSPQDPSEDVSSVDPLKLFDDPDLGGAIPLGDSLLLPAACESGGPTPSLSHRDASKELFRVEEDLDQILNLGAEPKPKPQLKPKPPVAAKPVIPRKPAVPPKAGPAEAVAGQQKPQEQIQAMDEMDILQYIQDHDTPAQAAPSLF
UniProt O75506: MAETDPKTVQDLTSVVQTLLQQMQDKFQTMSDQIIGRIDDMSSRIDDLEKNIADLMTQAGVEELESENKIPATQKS
UniProt P04439, whole entry, looked up: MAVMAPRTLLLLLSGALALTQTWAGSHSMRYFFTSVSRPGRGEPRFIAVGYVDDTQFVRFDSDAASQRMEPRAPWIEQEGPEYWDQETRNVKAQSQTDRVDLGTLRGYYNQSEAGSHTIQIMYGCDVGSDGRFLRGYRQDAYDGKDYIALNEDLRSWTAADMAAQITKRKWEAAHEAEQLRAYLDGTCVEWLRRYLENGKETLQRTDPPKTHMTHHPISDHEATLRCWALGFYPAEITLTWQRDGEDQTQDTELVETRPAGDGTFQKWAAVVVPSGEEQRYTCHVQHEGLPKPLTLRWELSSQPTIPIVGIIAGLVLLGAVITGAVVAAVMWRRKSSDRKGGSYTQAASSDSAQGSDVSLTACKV
UniProt P41134: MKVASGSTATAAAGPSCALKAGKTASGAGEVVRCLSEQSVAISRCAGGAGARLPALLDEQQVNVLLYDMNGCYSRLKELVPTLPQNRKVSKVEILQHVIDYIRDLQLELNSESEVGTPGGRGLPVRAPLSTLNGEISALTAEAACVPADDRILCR
UniProt Q58FF6, whole entry, looked up: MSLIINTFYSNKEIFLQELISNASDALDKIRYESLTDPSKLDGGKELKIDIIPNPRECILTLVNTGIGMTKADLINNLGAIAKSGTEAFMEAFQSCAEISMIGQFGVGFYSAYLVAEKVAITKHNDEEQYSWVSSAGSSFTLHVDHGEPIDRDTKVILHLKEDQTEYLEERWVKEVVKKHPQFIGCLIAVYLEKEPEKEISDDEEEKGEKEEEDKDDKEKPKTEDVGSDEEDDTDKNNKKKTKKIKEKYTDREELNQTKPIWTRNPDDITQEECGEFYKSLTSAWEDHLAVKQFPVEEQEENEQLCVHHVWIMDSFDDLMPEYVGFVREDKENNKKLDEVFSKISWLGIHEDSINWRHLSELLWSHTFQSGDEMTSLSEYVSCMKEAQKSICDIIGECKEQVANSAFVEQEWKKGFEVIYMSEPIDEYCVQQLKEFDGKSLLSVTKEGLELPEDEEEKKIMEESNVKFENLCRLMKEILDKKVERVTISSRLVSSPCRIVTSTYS
UniProt H0YH80: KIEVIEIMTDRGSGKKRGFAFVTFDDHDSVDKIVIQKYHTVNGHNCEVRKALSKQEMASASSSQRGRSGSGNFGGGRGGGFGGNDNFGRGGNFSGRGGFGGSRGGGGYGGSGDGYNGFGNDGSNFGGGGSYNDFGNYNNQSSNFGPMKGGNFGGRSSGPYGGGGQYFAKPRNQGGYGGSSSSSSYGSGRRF
UniProt Q9UMF0: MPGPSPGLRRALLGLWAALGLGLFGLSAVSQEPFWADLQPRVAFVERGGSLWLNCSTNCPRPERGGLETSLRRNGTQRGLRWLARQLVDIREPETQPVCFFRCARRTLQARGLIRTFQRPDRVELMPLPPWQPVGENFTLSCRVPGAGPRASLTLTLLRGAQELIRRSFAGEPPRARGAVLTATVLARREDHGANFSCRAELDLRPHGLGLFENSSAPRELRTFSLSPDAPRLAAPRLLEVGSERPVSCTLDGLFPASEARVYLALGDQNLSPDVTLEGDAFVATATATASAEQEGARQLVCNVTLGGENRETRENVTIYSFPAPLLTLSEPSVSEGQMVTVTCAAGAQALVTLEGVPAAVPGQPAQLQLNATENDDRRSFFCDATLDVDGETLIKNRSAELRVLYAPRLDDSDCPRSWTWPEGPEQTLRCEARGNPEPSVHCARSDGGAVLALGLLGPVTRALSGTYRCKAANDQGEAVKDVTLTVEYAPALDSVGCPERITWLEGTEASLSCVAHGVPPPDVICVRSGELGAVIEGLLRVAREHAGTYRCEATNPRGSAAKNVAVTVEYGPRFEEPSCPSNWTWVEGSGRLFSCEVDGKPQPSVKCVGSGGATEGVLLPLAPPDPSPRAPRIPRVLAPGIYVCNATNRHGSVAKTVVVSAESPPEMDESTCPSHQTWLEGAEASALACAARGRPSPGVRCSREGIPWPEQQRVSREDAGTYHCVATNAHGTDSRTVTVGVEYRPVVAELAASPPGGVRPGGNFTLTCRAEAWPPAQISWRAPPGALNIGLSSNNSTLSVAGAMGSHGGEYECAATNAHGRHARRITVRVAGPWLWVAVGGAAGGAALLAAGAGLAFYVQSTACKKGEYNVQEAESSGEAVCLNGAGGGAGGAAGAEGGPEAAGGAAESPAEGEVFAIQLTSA
UniProt Q9NZL4: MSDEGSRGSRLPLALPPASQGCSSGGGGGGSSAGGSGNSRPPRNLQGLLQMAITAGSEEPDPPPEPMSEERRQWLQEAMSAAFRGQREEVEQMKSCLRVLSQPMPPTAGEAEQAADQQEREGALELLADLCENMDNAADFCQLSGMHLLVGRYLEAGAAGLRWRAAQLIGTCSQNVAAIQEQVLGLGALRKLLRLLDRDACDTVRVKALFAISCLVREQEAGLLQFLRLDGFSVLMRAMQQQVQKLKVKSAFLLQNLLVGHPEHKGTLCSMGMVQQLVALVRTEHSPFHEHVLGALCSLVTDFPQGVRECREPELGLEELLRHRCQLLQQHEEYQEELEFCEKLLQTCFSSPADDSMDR
UniProt P50135: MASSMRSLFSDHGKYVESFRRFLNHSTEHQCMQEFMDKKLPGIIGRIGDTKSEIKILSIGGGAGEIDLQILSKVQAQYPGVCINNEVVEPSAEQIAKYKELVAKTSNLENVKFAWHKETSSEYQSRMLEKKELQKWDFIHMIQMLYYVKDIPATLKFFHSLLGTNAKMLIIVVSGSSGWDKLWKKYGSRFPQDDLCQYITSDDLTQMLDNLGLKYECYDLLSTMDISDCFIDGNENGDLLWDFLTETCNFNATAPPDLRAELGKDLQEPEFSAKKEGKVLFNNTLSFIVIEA
UniProt Q9NWY4: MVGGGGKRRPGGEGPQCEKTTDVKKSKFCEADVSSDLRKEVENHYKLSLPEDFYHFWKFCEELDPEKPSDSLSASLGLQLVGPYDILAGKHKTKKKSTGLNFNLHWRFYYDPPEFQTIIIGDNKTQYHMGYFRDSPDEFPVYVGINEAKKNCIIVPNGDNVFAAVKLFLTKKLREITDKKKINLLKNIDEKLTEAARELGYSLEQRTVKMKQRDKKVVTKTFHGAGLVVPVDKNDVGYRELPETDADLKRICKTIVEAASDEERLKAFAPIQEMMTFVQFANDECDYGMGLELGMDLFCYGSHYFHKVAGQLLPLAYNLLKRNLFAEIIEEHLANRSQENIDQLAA
UniProt P30939: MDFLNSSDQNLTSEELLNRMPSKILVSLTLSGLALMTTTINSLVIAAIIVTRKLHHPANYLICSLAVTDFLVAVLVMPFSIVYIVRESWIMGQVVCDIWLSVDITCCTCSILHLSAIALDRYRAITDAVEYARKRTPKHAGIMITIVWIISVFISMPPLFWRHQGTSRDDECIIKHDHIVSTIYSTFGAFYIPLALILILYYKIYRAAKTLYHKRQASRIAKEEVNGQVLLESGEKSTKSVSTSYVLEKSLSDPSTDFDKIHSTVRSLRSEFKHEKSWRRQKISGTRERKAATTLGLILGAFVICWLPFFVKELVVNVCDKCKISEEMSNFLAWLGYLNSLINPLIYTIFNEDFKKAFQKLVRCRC
UniProt P17483: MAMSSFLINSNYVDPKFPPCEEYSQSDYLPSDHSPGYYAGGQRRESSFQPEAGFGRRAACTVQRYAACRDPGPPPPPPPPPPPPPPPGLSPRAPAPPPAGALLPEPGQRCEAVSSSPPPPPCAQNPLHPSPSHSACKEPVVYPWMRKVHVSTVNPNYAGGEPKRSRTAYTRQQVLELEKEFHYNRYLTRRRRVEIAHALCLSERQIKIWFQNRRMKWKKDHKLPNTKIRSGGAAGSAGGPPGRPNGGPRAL
UniProt Q9P0W2: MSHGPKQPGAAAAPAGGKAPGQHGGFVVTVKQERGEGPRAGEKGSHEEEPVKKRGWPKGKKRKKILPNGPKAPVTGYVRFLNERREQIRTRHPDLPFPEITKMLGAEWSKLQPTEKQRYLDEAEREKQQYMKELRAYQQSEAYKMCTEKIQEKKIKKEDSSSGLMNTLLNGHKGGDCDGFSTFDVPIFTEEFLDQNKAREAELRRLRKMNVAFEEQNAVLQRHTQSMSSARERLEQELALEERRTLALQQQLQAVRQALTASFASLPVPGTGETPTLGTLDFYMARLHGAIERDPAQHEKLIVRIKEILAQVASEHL
UniProt P28356, whole entry, looked up: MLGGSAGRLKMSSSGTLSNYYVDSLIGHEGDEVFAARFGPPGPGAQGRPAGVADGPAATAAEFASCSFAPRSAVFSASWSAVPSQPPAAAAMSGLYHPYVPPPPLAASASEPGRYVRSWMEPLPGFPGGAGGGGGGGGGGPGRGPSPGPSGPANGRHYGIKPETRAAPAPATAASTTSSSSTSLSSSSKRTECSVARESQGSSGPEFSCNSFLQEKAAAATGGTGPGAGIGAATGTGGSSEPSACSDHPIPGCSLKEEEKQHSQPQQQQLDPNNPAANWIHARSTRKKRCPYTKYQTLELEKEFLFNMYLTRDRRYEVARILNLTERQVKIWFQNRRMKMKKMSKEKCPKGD

Tests used:
Assay in all cases: log2 fold change, soluble protein after heating vs DMSO (PISA); higher = thermal stabilisation; K562 cells, 10 uM, 30 min; active = over 0.2 and 3.5 SD of the protein, either way, in both replicates (recomputed)
[1] = compound: CC[C@@H]1C(=O)N(C)c2cnc(Nc3ccc(C(=O)NC4CCN(C)CC4)cc3OC)nc2N1C1CCCC1
Outline: (§1)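 K562 cells at 2×10^6 cells/mL were given 10 μM compound for 30 min. Aliquots then went through 3 min of heating across 48°C-58°C, were pooled, and were extracted in PBS with 0.5% NP-40 at 4°C, and the supernatant after 21,000xg for 90 min was quantified by TMTpro 16plex LC-MS/MS with channel sums equalised. Thermal stability relative to control samples, from duplicates, is given as log2 fold change.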

volasertib = compound: CC[C@@H]1C(=O)N(C)c2cnc(Nc3ccc(C(=O)N[C@H]4CC[C@H](N5CCN(CC6CC6)CC5)CC4)cc3OC)nc2N1C(C)C [volasertib]
Outline: as §1

[2] = compound: CC[C@H](C)N1C=C(C2=C(C=C(C=C21)C3=CN=C(C=C3)N4CCNCC4)C(=O)NCC5=C(C=C(NC5=O)C)C)C
Outline: as §1

epoxomicin = compound: CC[C@H](C)[C@@H](C(=O)N[C@@H]([C@@H](C)O)C(=O)N[C@@H](CC(C)C)C(=O)[C@]1(CO1)C)NC(=O)[C@H]([C@@H](C)CC)N(C)C(=O)C [epoxomicin]
Outline: as §1

[3] = compound: CCn1cc(-c2ccnc3[nH]c(-c4cccc(CN(C)C)c4)cc23)c(-c2ccc(NC(=O)N(C)C)cc2)n1
Outline: as §1

[4] = compound: CN(C)CC(=O)Nc1ccc2[nH]c(=O)c3ccccc3c2c1
Outline: as §1

[5] = compound: CN1C2=C(C3=C1C(=O)N(N=C3)CC4=CC(=CC=C4)N)SC(=C2)S(=O)C
Outline: as §1

[6] = compound: CN1CCC(CNc2ccc3ncc(-c4cccc(OC(F)(F)F)c4)n3n2)CC1
Outline: as §1

rosiglitazone = compound: CN(CCOC1=CC=C(C=C1)C[C@H]2C(=O)NC(=O)S2)C3=CC=CC=N3 (racemic) [rosiglitazone]
Outline: as §1

[7] = compound: CCn1c(C(=O)N(C2CC2)C2CC2)cc2c3c(ncn3C)c(Nc3cc(C)n(C)n3)nc21
Outline: as §1

Measured: log2 fold change

HIST2H2BF isoform 2 (UniProt Q5QNW6)
inactive: [1] -0.043 | volasertib 0.153 | [2] -0.079 | epoxomicin -0.243 | [3] 0.231 | [4] -0.22 | [5] 0.398 | [6] 0.084

HK2 (UniProt P52789)
inactive: [1] -0.156 | [2] 0.086 | epoxomicin 0.049 | [3] 0.016 | [4] -0.001 | [5] -0.028 | [6] -0.038
active: volasertib -0.813

ICMT (UniProt O60725)
inactive: [1] 0.202 | volasertib 0.138 | [2] -0.027 | epoxomicin -0.029 | [4] 0.061 | [5] -0.051

HMGB3 (UniProt O15347)
inactive: [1] -0.182 | volasertib 0.064 | [2] 0.053 | epoxomicin -0.007 | [3] -0.021 | [4] -0.022 | [5] -0.039 | [6] 0.015

HNRNPR (UniProt O43390)
inactive: [1] 0.138 | volasertib -0.173 | [2] 0.008 | epoxomicin -0.097 | rosiglitazone -0.011

HMGXB4 (UniProt Q9UGU5)
inactive: [1] 0.01 | volasertib 0.035 | epoxomicin -0.083

HYOU1, A0A494C039
inactive: [1] 0.038 | [2] -0.012 | epoxomicin 0.044 | [7] -0.013 | [3] -0.153 | [4] -0.019 | rosiglitazone 0.028 | [5] 0.106 | [6] 0.079

HTD2 (UniProt P86397)
inactive: [1] 0.038 | volasertib 0.011 | epoxomicin 0.169 | [7] 0.064 | [3] -0.21 | [4] -0.01 | rosiglitazone 0.082 | [6] 0.063

HNRNPL (UniProt P14866)
inactive: [1] 0.025 | volasertib -0.075 | epoxomicin -0.059 | [7] -0.196 | [3] 0.148 | rosiglitazone 0.013 | [5] 0.327 | [6] 0.031

HS1BP3 (UniProt Q53T59)
active: volasertib -0.343
inactive: [1] -0.038 | [2] 0.073 | epoxomicin 0.056 | [4] 0.012 | [5] -0.041

HIP1 (UniProt O00291)
inactive: [1] 0.027 | volasertib -0.23 | [2] -0.095 | epoxomicin 0.085 | [3] 0.031 | [4] -0.045 | [5] -0.063 | [6] -0.148

HMGN5 (UniProt Q5JSK9)
inactive: [1] 0.194 | volasertib 0.134 | epoxomicin -0.161 | [7] -0.03 | [3] 0.092 | [4] -0.059 | rosiglitazone 0.036 | [5] 0.072 | [6] -0.172

HIGD1A isoform 2 (UniProt Q9Y241)
inactive: [2] 0.102 | rosiglitazone -0.057

HIGD2A (UniProt Q9BW72)
inactive: epoxomicin -0.073 | [7] 0.254

HMBS (UniProt F5H226)
inactive: [3] 0.193 | [4] -0.026 | rosiglitazone 0.77 | [6] -0.085

HSBP1 (UniProt O75506)
inactive: [1] -0.124 | [2] 0.47 | rosiglitazone 0.241

HLA-A isoform 2 (UniProt P04439)
inactive: [5] 0.071

ID1 (UniProt P41134)
inactive: [2] 0.059 | epoxomicin 0.432 | [7] -0.016 | rosiglitazone -0.136 | [5] 0.103

HMGCLL1 (UniProt Q8TB92)
inactive: [1] 0.018 | [2] 0 | epoxomicin 0.072 | [7] 0.013 | [3] 0.05 | [4] -0.025 | rosiglitazone -0.009 | [5] -0.164 | [6] -0.009

HNRNPD (UniProt D6RF44)
inactive: [7] -0.039

HPS4 isoform 4 (UniProt Q9NQG7)
inactive: [2] -0.069 | [7] 0.02 | [3] 0.182 | [5] -0.056 | [6] -0.043

HOMER2 (UniProt Q9NSB8)
inactive: [1] 0.047 | epoxomicin -0.022 | [4] -0.093

HNRNPK isoform 3 (UniProt P61978)
inactive: [1] 0.121 | [2] -0.062 | epoxomicin -0.035 | [3] 0.032 | [4] 0.012 | [5] -0.057 | [6] 0.076

ICOSLG isoform 2 (UniProt O75144)
inactive: volasertib 0.082 | [7] -0.224 | [4] 0.039 | rosiglitazone 0.011

HSCB (UniProt Q8IWL3)
inactive: volasertib -0.08 | [2] 0.099 | epoxomicin 0.036 | [7] 0.093 | [3] 0.025 | [4] 0 | [5] -0.097 | [6] -0.078

ICE2 (UniProt Q659A1)
inactive: epoxomicin -0.173 | [7] 0.131 | [3] 0.19 | [4] 0.051 | rosiglitazone 0.036 | [6] -0.22

HSP90AB4P (UniProt Q58FF6)
inactive: [1] 0.065 | [2] -0.08 | epoxomicin 0.116 | [7] 0.015 | rosiglitazone 0.081 | [5] 0.085

HUWE1, A0A087X1S3
inactive: [1] -0.075 | epoxomicin -0.072 | [7] -0.178 | [3] 0.011 | rosiglitazone 0.001 | [5] 0.095 | [6] -0.078

HSPBAP1 (UniProt Q96EW2)
inactive: [7] -0.051 | [4] 0.02

HNRNPA1 (UniProt H0YH80)
inactive: [1] 0.289 | [2] -0.103 | epoxomicin -0.386 | [3] 0.4 | [4] -0.087 | rosiglitazone -0.313 | [6] 0.288

ICAM5 (UniProt Q9UMF0)
inactive: [1] -0.033 | [2] 0.032 | epoxomicin 0.049 | [7] -0.062 | [4] -0.036 | rosiglitazone 0.073 | [5] -0.068

HNRNPU isoform 2 (UniProt Q00839)
inactive: volasertib 0.007 | [5] 0.217

HSPBP1 (UniProt Q9NZL4)
inactive: epoxomicin 0.011

HNMT (UniProt P50135)
inactive: [7] -0.29

ICE1 (UniProt Q9Y2F5)
inactive: [2] -0.142 | epoxomicin -0.064 | rosiglitazone 0.018

HPF1 (UniProt Q9NWY4)
inactive: epoxomicin -0.017 | [5] 0.125

HUWE1 isoform 2 (UniProt Q7Z6Z7)
inactive: [7] -0.058 | [5] -0.001

ICA1 isoform 2 (UniProt Q05084)
inactive: epoxomicin 0.081 | [7] -0.119 | [3] -0.137 | [5] 0.182 | [6] 0.127

HTR1F (UniProt P30939)
inactive: [7] 0.028 | [3] -0.132 | [6] 0.017

HOXB4 (UniProt P17483)
inactive: [2] 0.144 | epoxomicin -0.029

2 successive entries out of the list so far, quoted:
HUWE1 isoform 2 (UniProt Q7Z6Z7)
inactive: [7] -0.058 | [5] -0.001

ICA1 isoform 2 (UniProt Q05084)
inactive: epoxomicin 0.081 | [7] -0.119 | [3] -0.137 | [5] 0.182 | [6] 0.127

More results

HSPA2 (UniProt P54652)
inactive: [2] -0.014

HMG20B (UniProt Q9P0W2)
inactive: [2] -0.029 | [3] -0.132 | rosiglitazone 0.126 | [6] -0.026

HLA-E (UniProt P13747)
inactive: volasertib -0.029 | epoxomicin -0.018 | [3] 0.004 | rosiglitazone 0.095 | [5] 0.033 | [6] 0.056

HOXD9 (UniProt P28356)
inactive: [1] 0.039 | [7] 0.114 | [3] -0.018 | [4] -0.017 | [5] 0.046 | [6] -0.1

HOMER3 (UniProt Q9NSC5)
inactive: [7] -0.113
